# Data taken from the supplement of paper PMC10849652.
# The chains behind the UniProt entries cited, without tags or fusion partners. Where a name states a change or a piece, a line headed by the entry shows the natural chain unless it says otherwise.
# UniProt Q7Z7A3: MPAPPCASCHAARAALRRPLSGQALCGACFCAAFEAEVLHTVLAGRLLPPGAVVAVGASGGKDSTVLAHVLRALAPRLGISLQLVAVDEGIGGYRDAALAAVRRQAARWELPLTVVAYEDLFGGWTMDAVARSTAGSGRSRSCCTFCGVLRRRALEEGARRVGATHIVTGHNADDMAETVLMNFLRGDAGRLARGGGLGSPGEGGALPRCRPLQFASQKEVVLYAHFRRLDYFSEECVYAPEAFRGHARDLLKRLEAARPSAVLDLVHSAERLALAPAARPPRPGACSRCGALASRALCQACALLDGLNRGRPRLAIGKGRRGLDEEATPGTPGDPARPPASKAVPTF
# UniProt Q6UXH1: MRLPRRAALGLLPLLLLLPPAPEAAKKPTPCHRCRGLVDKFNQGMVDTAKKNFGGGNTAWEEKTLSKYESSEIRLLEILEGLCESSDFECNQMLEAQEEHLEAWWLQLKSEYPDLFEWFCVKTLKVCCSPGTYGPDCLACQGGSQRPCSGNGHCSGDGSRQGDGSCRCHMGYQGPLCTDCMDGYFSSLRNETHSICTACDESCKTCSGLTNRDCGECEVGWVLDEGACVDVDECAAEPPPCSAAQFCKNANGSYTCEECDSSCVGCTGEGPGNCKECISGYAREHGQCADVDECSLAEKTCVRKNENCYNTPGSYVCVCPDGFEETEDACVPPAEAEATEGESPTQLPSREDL
# UniProt P50461: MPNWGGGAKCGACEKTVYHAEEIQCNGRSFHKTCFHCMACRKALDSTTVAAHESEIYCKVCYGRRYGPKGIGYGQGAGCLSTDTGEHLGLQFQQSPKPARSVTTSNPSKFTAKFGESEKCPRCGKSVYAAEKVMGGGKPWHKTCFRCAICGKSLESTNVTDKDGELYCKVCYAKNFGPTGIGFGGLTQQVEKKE
# UniProt Q6UX04: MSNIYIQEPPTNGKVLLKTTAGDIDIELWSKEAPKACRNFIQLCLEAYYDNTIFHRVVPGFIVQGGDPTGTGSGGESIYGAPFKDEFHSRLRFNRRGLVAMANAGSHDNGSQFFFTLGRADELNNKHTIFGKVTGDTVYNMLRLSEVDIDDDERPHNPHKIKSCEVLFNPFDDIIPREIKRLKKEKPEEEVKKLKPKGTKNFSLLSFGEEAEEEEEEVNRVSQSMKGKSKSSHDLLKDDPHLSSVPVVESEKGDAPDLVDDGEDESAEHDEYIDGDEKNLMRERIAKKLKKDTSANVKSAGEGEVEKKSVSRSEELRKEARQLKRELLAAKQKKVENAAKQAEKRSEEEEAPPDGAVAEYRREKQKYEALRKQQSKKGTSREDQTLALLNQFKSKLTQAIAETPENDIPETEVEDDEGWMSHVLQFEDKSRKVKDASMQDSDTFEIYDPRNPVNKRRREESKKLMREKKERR
# UniProt E9PJD7, whole entry, looked up: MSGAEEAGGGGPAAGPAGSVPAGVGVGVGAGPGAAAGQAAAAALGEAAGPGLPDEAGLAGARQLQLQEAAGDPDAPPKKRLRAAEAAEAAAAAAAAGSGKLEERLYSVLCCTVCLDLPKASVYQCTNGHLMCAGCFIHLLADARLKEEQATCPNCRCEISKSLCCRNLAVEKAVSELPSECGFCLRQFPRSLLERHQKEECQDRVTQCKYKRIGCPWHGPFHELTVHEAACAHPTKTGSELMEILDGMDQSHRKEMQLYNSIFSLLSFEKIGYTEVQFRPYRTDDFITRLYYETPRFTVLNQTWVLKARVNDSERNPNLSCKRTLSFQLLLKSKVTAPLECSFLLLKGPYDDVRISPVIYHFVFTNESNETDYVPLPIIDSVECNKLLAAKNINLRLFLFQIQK
# UniProt Q2VPK5: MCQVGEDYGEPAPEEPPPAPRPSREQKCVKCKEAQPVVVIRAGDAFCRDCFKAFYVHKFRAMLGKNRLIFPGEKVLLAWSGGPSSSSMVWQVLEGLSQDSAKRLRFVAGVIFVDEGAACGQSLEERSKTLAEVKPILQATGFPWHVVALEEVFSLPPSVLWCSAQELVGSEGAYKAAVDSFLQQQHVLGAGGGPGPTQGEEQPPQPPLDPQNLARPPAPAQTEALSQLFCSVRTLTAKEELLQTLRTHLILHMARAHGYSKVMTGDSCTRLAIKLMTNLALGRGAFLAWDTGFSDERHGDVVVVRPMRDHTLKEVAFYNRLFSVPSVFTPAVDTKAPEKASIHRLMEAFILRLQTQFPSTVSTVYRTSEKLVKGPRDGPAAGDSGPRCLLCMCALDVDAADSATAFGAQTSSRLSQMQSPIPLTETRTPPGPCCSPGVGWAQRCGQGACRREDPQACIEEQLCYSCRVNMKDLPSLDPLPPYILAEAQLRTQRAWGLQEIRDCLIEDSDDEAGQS
# UniProt Q13618, whole entry, looked up: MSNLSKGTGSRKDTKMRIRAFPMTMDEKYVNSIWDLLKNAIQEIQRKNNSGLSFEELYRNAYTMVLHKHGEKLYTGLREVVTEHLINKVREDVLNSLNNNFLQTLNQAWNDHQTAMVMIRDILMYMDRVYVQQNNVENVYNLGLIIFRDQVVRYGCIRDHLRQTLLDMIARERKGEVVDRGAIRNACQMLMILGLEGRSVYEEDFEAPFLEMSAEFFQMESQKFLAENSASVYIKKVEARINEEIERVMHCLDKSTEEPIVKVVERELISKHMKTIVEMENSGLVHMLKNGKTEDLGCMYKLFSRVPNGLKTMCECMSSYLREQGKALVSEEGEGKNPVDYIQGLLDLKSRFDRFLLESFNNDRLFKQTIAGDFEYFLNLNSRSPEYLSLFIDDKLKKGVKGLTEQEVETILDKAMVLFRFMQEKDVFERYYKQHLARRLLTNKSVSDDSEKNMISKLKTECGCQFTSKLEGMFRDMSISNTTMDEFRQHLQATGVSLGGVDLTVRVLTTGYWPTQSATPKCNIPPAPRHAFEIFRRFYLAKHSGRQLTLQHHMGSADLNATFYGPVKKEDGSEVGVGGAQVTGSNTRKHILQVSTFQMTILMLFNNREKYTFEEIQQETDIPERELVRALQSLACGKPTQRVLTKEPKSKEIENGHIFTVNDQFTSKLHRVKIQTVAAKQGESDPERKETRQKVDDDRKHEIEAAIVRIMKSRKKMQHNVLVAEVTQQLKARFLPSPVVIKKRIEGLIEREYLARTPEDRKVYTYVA
# UniProt Q9P0U4, whole entry, looked up: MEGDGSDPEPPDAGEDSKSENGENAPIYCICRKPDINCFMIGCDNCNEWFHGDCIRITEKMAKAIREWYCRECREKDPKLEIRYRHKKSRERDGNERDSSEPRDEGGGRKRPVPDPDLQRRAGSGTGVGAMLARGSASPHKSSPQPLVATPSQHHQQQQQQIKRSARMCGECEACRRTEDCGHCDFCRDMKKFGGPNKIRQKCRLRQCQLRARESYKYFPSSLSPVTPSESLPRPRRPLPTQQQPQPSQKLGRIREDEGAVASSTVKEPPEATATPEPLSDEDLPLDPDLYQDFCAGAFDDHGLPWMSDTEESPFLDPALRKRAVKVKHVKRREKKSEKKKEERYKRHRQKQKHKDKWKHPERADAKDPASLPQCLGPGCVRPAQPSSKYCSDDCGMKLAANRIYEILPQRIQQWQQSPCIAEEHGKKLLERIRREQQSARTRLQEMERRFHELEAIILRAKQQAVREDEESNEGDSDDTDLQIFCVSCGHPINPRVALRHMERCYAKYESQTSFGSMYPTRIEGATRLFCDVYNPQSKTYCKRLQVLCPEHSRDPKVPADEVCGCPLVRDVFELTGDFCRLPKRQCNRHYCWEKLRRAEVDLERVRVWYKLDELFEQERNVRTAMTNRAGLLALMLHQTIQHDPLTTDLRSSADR
# UniProt Q8WYA6: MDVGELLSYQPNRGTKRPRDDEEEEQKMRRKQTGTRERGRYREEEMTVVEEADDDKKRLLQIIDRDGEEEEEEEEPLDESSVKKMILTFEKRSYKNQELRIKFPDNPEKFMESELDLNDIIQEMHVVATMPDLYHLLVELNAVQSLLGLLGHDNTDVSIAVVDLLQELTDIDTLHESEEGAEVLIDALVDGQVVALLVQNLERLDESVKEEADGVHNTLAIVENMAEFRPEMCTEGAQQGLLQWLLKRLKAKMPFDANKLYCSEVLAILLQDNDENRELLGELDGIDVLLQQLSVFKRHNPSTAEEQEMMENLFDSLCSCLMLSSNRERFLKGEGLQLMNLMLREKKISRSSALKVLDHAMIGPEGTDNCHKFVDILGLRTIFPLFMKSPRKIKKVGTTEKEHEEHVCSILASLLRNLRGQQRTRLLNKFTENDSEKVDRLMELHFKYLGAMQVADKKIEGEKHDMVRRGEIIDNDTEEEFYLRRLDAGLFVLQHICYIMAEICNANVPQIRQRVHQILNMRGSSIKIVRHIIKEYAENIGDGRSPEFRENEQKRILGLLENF
# UniProt Q9H0L4: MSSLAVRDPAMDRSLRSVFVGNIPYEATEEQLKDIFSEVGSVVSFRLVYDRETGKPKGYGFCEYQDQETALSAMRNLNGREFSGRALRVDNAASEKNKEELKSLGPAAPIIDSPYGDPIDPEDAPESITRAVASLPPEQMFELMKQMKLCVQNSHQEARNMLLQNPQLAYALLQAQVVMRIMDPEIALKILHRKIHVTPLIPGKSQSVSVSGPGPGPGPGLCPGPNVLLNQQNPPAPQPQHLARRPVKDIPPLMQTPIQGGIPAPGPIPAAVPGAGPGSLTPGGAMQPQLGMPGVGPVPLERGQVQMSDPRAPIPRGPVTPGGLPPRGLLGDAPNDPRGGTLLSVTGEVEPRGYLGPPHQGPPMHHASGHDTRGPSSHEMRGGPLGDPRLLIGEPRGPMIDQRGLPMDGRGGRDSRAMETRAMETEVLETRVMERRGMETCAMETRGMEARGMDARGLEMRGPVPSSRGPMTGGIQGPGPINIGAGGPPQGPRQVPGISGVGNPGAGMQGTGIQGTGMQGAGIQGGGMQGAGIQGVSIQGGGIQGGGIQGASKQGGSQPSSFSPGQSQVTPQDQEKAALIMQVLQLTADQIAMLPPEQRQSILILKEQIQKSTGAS
# UniProt Q7L1T6: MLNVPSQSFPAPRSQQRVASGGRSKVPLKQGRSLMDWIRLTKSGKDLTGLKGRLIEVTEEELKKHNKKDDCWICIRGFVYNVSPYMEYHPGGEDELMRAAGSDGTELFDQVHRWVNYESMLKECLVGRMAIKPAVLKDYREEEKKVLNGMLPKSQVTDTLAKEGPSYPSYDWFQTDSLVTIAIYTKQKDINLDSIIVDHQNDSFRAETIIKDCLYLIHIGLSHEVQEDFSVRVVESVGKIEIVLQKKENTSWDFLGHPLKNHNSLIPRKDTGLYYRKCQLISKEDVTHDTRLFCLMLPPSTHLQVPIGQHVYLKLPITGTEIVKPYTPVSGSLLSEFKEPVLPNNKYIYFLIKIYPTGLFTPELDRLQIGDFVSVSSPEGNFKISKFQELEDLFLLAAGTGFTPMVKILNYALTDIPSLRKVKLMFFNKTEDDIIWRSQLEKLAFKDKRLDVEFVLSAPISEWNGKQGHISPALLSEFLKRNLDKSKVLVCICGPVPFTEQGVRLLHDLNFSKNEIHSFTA
# UniProt P35221: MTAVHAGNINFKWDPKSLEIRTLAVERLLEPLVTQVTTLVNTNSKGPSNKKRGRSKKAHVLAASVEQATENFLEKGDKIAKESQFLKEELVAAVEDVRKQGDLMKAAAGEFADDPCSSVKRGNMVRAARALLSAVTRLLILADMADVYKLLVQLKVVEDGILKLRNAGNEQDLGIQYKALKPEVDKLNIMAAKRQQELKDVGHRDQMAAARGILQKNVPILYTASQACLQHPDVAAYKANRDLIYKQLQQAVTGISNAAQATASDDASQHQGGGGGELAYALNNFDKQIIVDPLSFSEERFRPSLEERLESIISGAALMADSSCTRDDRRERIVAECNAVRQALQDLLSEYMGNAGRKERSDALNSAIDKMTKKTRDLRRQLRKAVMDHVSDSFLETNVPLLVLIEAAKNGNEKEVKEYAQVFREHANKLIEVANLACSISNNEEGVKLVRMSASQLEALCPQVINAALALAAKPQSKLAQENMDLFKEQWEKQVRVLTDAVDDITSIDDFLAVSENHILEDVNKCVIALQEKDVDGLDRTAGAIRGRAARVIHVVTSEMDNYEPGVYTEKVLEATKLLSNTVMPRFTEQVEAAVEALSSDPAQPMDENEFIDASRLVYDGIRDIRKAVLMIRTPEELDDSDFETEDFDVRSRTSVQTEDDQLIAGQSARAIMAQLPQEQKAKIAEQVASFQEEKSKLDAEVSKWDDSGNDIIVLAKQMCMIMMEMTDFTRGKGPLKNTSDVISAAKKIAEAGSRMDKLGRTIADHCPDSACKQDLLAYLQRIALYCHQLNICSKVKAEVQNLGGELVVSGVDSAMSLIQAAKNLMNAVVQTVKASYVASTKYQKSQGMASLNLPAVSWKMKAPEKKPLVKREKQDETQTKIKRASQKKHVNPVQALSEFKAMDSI
# The other results are listed elsewhere or left out.
# Columns and labels:
# Assay in all cases: log2 fold change, soluble protein after heating vs DMSO (PISA); higher = thermal stabilisation; K562 lysate, 10 uM; active = over 0.2 and 3.5 SD of the protein, either way, in both replicates (recomputed)
# alvocidib = compound: CN1CC[C@H](c2c(O)cc(O)c3c(=O)cc(-c4ccccc4Cl)oc23)[C@H](O)C1 [alvocidib]
# Procedure, shortened: (§1)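 Soluble protein was defined as the supernatant remaining after 21,000xg for 90 min, following pooling of heated aliquots and adjustment to 0.5% NP-40 at 4°C. Before that, crude K562 extract at 1 mg/mL protein in PBS pH 7.4 with 1 mM MgCl2 was treated with 10 μM compound for 30 min and heated for 3 min across 48°C-58°C. Quantification used TMTpro 16plex LC-MS/MS with channel sums equalised, and values are log-two fold changes in thermal stability relative to solvent controls from duplicates.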
# Tubastatin A = compound: CN1CCc2c(c3ccccc3n2Cc2ccc(C(=O)NO)cc2)C1 [Tubastatin A]
# Procedure, shortened: as §1
# [1] = compound: CNC(=O)C1=CC=CC=C1NC2=NC(=NC=C2Cl)NC3=C(C=C(C=C3)N4CCOCC4)OC
# Procedure, shortened: as §1
# defactinib = compound: CNC(=O)c1ccc(Nc2ncc(C(F)(F)F)c(NCc3nccnc3N(C)S(C)(=O)=O)n2)cc1 [defactinib]
# Procedure, shortened: as §1
# [2] = compound: CNc1nc(-c2ccc3c(N)n[nH]c3c2)cc(N2C[C@@H](C(=O)NC3CCCCC3)CC[C@H]2C)n1
# Procedure, shortened: as §1
# encorafenib = compound: COC(=O)N[C@@H](C)CNc1nccc(-c2cn(C(C)C)nc2-c2cc(Cl)cc(NS(C)(=O)=O)c2F)n1 [encorafenib]
# Procedure, shortened: as §1
# [3] = compound: COC(=O)[C@H](CCSC)NC(=O)C1=C(C=C(C=C1)NC[C@H](CS)N)C2=CC=CC=C2
# Procedure, shortened: as §1
# alisertib = compound: COc1cc(Nc2ncc3c(n2)-c2ccc(Cl)cc2C(c2c(F)cccc2OC)=NC3)ccc1C(=O)O [alisertib]
# Procedure, shortened: as §1
# [4] = compound: COc1cc2nc(-c3cc(F)ccc3O)nc(N[C@@H]3CNC[C@H]3C(C)(C)O)c2cc1OC
# Procedure, shortened: as §1
# gefitinib = compound: COc1cc2ncnc(Nc3ccc(F)c(Cl)c3)c2cc1OCCCN1CCOCC1 [gefitinib]
# Procedure, shortened: as §1
# lapatinib = compound: CS(=O)(=O)CCNCc1ccc(-c2ccc3ncnc(Nc4ccc(OCc5cccc(F)c5)c(Cl)c4)c3c2)o1 [lapatinib]
# Procedure, shortened: as §1
# pictilisib = compound: CS(=O)(=O)N1CCN(Cc2cc3nc(-c4cccc5[nH]ncc45)nc(N4CCOCC4)c3s2)CC1 [pictilisib]
# Procedure, shortened: as §1
# crizotinib = compound: C[C@@H](Oc1cc(-c2cnn(C3CCNCC3)c2)cnc1N)c1c(Cl)ccc(F)c1Cl [crizotinib]
# Procedure, shortened: as §1
# [5] = compound: C[C@H](C1=CC=C(C=C1)C(=O)NC2=C3C=CNC3=NC=C2)N
# Procedure, shortened: as §1
# duvelisib = compound: C[C@H](Nc1ncnc2nc[nH]c12)c1cc2cccc(Cl)c2c(=O)n1-c1ccccc1 [duvelisib]
# Procedure, shortened: as §1
# gandotinib = compound: Cc1cc(Nc2cc(CN3CCOCC3)c3nc(C)c(Cc4ccc(Cl)cc4F)n3n2)n[nH]1 [gandotinib]
# Procedure, shortened: as §1
# tozasertib = compound: Cc1cc(Nc2cc(N3CCN(C)CC3)nc(Sc3ccc(NC(=O)C4CC4)cc3)n2)n[nH]1 [tozasertib]
# Procedure, shortened: as §1
# doramapimod = compound: Cc1ccc(-n2nc(C(C)(C)C)cc2NC(=O)Nc2ccc(OCCN3CCOCC3)c3ccccc23)cc1 [doramapimod]
# Procedure, shortened: as §1
# bafetinib = compound: Cc1ccc(NC(=O)c2ccc(CN3CC[C@H](N(C)C)C3)c(C(F)(F)F)c2)cc1Nc1nccc(-c2cncnc2)n1 [bafetinib]
# Procedure, shortened: as §1
# [6] = compound: Cc1cccc(CC(=O)N2CCc3c2ccc(-c2cn(C)c4ncnc(N)c24)c3F)n1
# Procedure, shortened: as §1
Target,log2 fold change (alvocidib),log2 fold change (Tubastatin A),log2 fold change [1],log2 fold change (defactinib),log2 fold change [2],log2 fold change (encorafenib),log2 fold change [3],log2 fold change (alisertib),log2 fold change [4],log2 fold change (gefitinib),log2 fold change (lapatinib),log2 fold change (pictilisib),log2 fold change (crizotinib),log2 fold change [5],log2 fold change (duvelisib),log2 fold change (gandotinib),log2 fold change (tozasertib),log2 fold change (doramapimod),log2 fold change (bafetinib),log2 fold change [6]
CTU1 (UniProt Q7Z7A3),inactive: -0.02,inactive: -0.001,inactive: 0.01,inactive: 0.032,inactive: 0.025,inactive: -0.018,inactive: -0.005,inactive: 0.021,inactive: 0.028,inactive: -0.083,inactive: 0.011,inactive: 0.013,inactive: -0.037,inactive: -0.003,inactive: -0.011,inactive: -0.003,inactive: 0.02,inactive: 0.015,inactive: 0.042,inactive: 0.013
CRELD2 isoform 5 (UniProt Q6UXH1),inactive: -0.001,inactive: 0.072,inactive: 0.038,inactive: -0.006,inactive: -0.074,inactive: 0.03,inactive: -0.025,inactive: 0.05,inactive: 0.005,inactive: -0.091,inactive: 0.019,inactive: -0.036,inactive: 0.121,inactive: -0.056,inactive: 0.03,inactive: 0.006,inactive: -0.146,inactive: 0.019,inactive: 0.116,inactive: 0.028
CSRP3 (UniProt P50461),inactive: -0.071,inactive: 0.007,inactive: 0.121,inactive: -0.049,inactive: -0.056,inactive: -0.033,inactive: -0.182,inactive: -0.05,inactive: 0.023,inactive: -0.071,inactive: 0.044,inactive: 0.016,inactive: -0.077,inactive: 0,inactive: 0.094,inactive: 0.037,inactive: 0.018,inactive: 0.068,inactive: -0.077,inactive: 0.017
CWC27 (UniProt Q6UX04),inactive: 0.039,inactive: 0.004,inactive: 0.014,inactive: 0.019,inactive: 0.009,inactive: -0.011,inactive: 0,inactive: 0.034,inactive: -0.001,inactive: -0.004,inactive: 0.004,inactive: -0.003,inactive: -0.022,inactive: 0.023,inactive: -0.054,inactive: -0.032,inactive: -0.016,inactive: 0.013,inactive: -0.021,inactive: -0.008
CYHR1 (UniProt E9PJD7),inactive: 0.005,inactive: 0.011,inactive: 0.055,inactive: 0.025,inactive: 0.021,inactive: 0.024,inactive: -0.183,inactive: -0.018,inactive: 0.015,inactive: -0.003,inactive: 0.005,inactive: 0.008,inactive: -0.143,inactive: 0.005,inactive: -0.039,inactive: -0.005,inactive: 0.035,inactive: -0.012,inactive: 0.052,inactive: -0.03
CTU2 (UniProt Q2VPK5),inactive: 0.022,inactive: -0.105,inactive: 0.015,inactive: 0,inactive: -0.05,inactive: 0.023,inactive: -0.026,inactive: 0.018,inactive: -0.027,inactive: 0.005,inactive: 0.012,inactive: 0.007,inactive: 0.056,inactive: -0.013,inactive: -0.015,inactive: 0.013,inactive: 0.021,inactive: -0.009,inactive: 0.006,inactive: -0.009
CTNND1 isoform 3 (UniProt O60716),inactive: -0.02,inactive: -0.159,inactive: 0.019,inactive: 0.045,inactive: -0.04,inactive: 0.013,inactive: 0.174,inactive: 0.026,inactive: 0.006,inactive: -0.023,inactive: -0.019,inactive: -0.047,inactive: -0.039,inactive: -0.006,inactive: 0.008,inactive: -0.001,inactive: 0.002,inactive: 0.007,inactive: -0.025,inactive: 0.04
CTNNB1 (UniProt P35222),inactive: -0.035,inactive: -0.016,inactive: -0.006,inactive: 0.194,inactive: 0,inactive: 0.061,inactive: -0.062,inactive: 0.038,inactive: -0.03,inactive: -0.002,inactive: -0.034,inactive: 0.006,inactive: 0.012,inactive: -0.008,inactive: 0.054,inactive: 0.013,inactive: 0.012,inactive: -0.102,inactive: -0.018,inactive: -0.043
CUL3 (UniProt Q13618),inactive: 0.024,inactive: 0.015,inactive: -0.001,inactive: -0.011,inactive: -0.013,inactive: 0.001,inactive: -0.101,inactive: 0.006,inactive: 0.009,inactive: 0.034,inactive: -0.02,inactive: -0.02,inactive: 0.006,inactive: -0.005,inactive: 0.012,inactive: -0.04,inactive: 0.027,inactive: -0.012,inactive: -0.004,inactive: 0.039
CUEDC2 (UniProt Q9H467),inactive: 0.054,inactive: 0.036,inactive: 0.03,inactive: 0.055,inactive: 0.078,inactive: 0.006,inactive: -0.026,inactive: -0.019,inactive: -0.009,inactive: 0.019,inactive: 0.018,inactive: -0.119,inactive: 0.001,active: 0.528,inactive: -0.009,inactive: -0.026,inactive: -0.055,inactive: 0.022,inactive: -0.073,inactive: -0.082
CRKL (UniProt P46109),inactive: -0.016,inactive: 0.041,inactive: 0.005,inactive: -0.004,inactive: 0.039,inactive: -0.002,inactive: -0.071,inactive: 0.006,inactive: 0.017,inactive: -0.004,inactive: -0.013,inactive: 0,inactive: 0.011,inactive: -0.017,inactive: 0.02,inactive: 0.049,inactive: -0.003,inactive: -0.007,inactive: 0.003,inactive: 0.036
CXXC1 isoform 2 (UniProt Q9P0U4),inactive: -0.003,inactive: -0.138,inactive: -0.021,inactive: -0.004,active: 0.468,inactive: -0.032,inactive: 0.152,inactive: 0.069,inactive: 0.068,inactive: 0.015,inactive: -0.024,inactive: 0.107,inactive: -0.089,inactive: 0.058,inactive: 0.154,inactive: -0.046,inactive: -0.028,inactive: 0.018,inactive: -0.047,inactive: 0.005
CTNNBL1 (UniProt Q8WYA6),inactive: 0.027,inactive: 0.148,inactive: -0.004,inactive: -0.015,active: 0.417,inactive: 0.023,inactive: 0.101,inactive: -0.013,inactive: -0.027,inactive: 0.022,inactive: 0,inactive: -0.011,inactive: -0.032,inactive: 0.015,inactive: 0,inactive: -0.058,inactive: 0.033,inactive: 0.058,inactive: -0.103,inactive: 0.043
CSTF2T (UniProt Q9H0L4),inactive: -0.026,inactive: 0.008,inactive: 0.015,inactive: 0.007,inactive: 0.035,inactive: 0,inactive: -0.057,inactive: 0.031,inactive: -0.005,inactive: 0.006,inactive: 0.001,inactive: -0.035,inactive: 0.044,inactive: -0.005,inactive: -0.004,inactive: 0.012,inactive: -0.014,inactive: -0.003,inactive: 0.011,inactive: 0.076
CYB5R4 (UniProt Q7L1T6),inactive: -0.048,inactive: -0.09,inactive: 0.019,inactive: -0.017,inactive: -0.023,inactive: 0.001,inactive: 0.049,inactive: 0.009,inactive: 0.014,inactive: 0.063,inactive: 0.015,inactive: 0.014,inactive: -0.108,inactive: -0.024,inactive: -0.018,inactive: 0.014,inactive: -0.014,inactive: 0.059,inactive: -0.089,inactive: 0.077
CTNNA1 (UniProt P35221),inactive: -0.026,inactive: 0.031,inactive: 0.002,inactive: -0.011,inactive: 0.106,inactive: 0.003,inactive: -0.043,inactive: -0.017,inactive: 0.007,inactive: 0.006,inactive: -0.021,inactive: -0.007,inactive: -0.033,inactive: -0.039,inactive: 0.02,inactive: 0.064,inactive: 0,inactive: 0.015,inactive: -0.015,inactive: 0.019

# Look-ups from the list.
# For log2 fold change (bafetinib), CTNNBL1 (UniProt Q8WYA6) is listed with inactive: -0.103
# For log2 fold change [2], CTNNB1 (UniProt P35222) is listed with inactive: 0
